Record: PubChem BioAssay AID652259 (Drosophila RNAi Screening Center, 2013)
In all, the deposit lists about 22,000 reagents; shown is a random part of those with a known target gene and a result. Over the whole deposit, 233 (1.1%) got an active call. 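Light values are raw, unnormalised plate reads; the ratio scores behind the reporter calls were not deposited.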 A plus sign joins genes that one reagent is predicted to hit. Not stated in the record: the amount of reagent, the time to read-out, the dose of the treatment.

Assay: 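Knock-downs that push a Wingless-driven reporter up or down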 (primary screen)
Cells: Drosophila clone 8 imaginal disc epithelial cells
Reagents: long dsRNA against Drosophila genes
Challenge: pathway stimulated by co-transfected Wingless expression plasmid
Detection: 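Firefly luciferase from a tcf-site Wingless reporter, measured alongside co-transfected Renilla luciferase that tracks transfection; pathway stimulated by a Wingless plasmid; the firefly-to-Renilla ratio is not deposited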
Direction: firefly reporter light: higher = more Wg reporter light, before normalisation; Renilla control light: higher = more transfected or surviving cells
Call rule: 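a knock-down is a candidate when at least two out of four statistical tests show it departing from its plate mean; one test alone signals a weak candidate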
Calls: active = candidate regulator (raises or lowers reporter); inactive = not a candidate

{"gene knocked down":"endos (endosulfine)","amplicon":"DRSC10658","firefly reporter light, replicate 1":4074,"Renilla control light, replicate 1":1773,"Call":"inactive"}
{"gene knocked down":"alpha-Est4 (alpha-Esterase-4)","amplicon":"DRSC12616","firefly reporter light, replicate 1":11808,"Renilla control light, replicate 1":3857,"Call":"inactive"}
{"gene knocked down":"sima (similar)","amplicon":"DRSC17055","reporter change call, replicate 1":"Wg reporter activity raised","firefly reporter light, replicate 1":11664,"Renilla control light, replicate 1":775,"Call":"active"}
{"gene knocked down":"Rai1 (Rat1 Interacting Protein 1)","amplicon":"DRSC20157","firefly reporter light, replicate 1":16489,"Renilla control light, replicate 1":6978,"Call":"inactive"}
{"gene knocked down":"Snx17 (Sorting nexin 17)","amplicon":"DRSC02884","firefly reporter light, replicate 1":8416,"Renilla control light, replicate 1":3586,"Call":"inactive"}
{"gene knocked down":"CG31156","amplicon":"DRSC15753","firefly reporter light, replicate 1":3098,"firefly reporter light, replicate 2":6101,"Renilla control light, replicate 1":1062,"Renilla control light, replicate 2":1781,"Call":"inactive"}
{"gene knocked down":"CG31156","amplicon":"DRSC15755","firefly reporter light, replicate 1":12754,"Renilla control light, replicate 1":7408,"Call":"inactive"}
{"gene knocked down":"aus (argus)","amplicon":"DRSC13471","firefly reporter light, replicate 1":1819,"Renilla control light, replicate 1":1212,"Call":"inactive"}
{"gene knocked down":"aus (argus)","amplicon":"DRSC13473","firefly reporter light, replicate 1":2993,"Renilla control light, replicate 1":1483,"Call":"inactive"}
{"gene knocked down":"aus (argus)","amplicon":"DRSC15157","firefly reporter light, replicate 1":2720,"firefly reporter light, replicate 2":7395,"Renilla control light, replicate 1":803,"Renilla control light, replicate 2":1968,"Call":"inactive"}
{"gene knocked down":"Hrb87F (Heterogeneous nuclear ribonucleoprotein at 87F)","amplicon":"DRSC16708","firefly reporter light, replicate 1":5875,"Renilla control light, replicate 1":2373,"Call":"inactive"}
{"gene knocked down":"BCAS2","amplicon":"DRSC15693","firefly reporter light, replicate 1":3840,"firefly reporter light, replicate 2":8624,"Renilla control light, replicate 1":1064,"Renilla control light, replicate 2":1877,"Call":"inactive"}
{"gene knocked down":"Toll-6","amplicon":"DRSC11304","firefly reporter light, replicate 1":6621,"Renilla control light, replicate 1":2950,"Call":"inactive"}
{"gene knocked down":"Snmp1 (Sensory neuron membrane protein 1)","amplicon":"DRSC16168","firefly reporter light, replicate 1":26027,"Renilla control light, replicate 1":3986,"Call":"inactive"}
{"gene knocked down":"Cpr47Eg (Cuticular protein 47Eg)","amplicon":"DRSC07330","firefly reporter light, replicate 1":4681,"Renilla control light, replicate 1":2269,"Call":"inactive"}
{"gene knocked down":"Prosbeta5 (Proteasome beta5 subunit)","amplicon":"DRSC07517","firefly reporter light, replicate 1":2618,"firefly reporter light, replicate 2":4949,"Renilla control light, replicate 1":802,"Renilla control light, replicate 2":2061,"Call":"inactive"}
{"gene knocked down":"CG14356","amplicon":"DRSC14819","firefly reporter light, replicate 1":15284,"Renilla control light, replicate 1":3336,"Call":"inactive"}
{"gene knocked down":"Nmdmc (NAD-dependent methylenetetrahydrofolate dehydrogenase)","amplicon":"DRSC16760","firefly reporter light, replicate 1":6585,"Renilla control light, replicate 1":2437,"Call":"inactive"}
{"gene knocked down":"CG31321","amplicon":"DRSC13028","firefly reporter light, replicate 1":3264,"Renilla control light, replicate 1":1122,"Call":"inactive"}
{"gene knocked down":"CG43777 + CG43776 + CG43775","amplicon":"DRSC04206","firefly reporter light, replicate 1":2497,"firefly reporter light, replicate 2":5050,"Renilla control light, replicate 1":417,"Renilla control light, replicate 2":2252,"Call":"inactive"}
{"gene knocked down":"okr (okra)","amplicon":"DRSC00834","firefly reporter light, replicate 1":10320,"Renilla control light, replicate 1":3853,"Call":"inactive"}
{"gene knocked down":"rst (roughest)","amplicon":"DRSC17243","firefly reporter light, replicate 1":2893,"Renilla control light, replicate 1":1107,"Call":"inactive"}
{"gene knocked down":"rst (roughest)","amplicon":"DRSC18828","firefly reporter light, replicate 1":21056,"Renilla control light, replicate 1":12678,"Call":"inactive"}
{"gene knocked down":"Mnn1 (Menin 1)","amplicon":"DRSC03368","firefly reporter light, replicate 1":3405,"firefly reporter light, replicate 2":9057,"Renilla control light, replicate 1":968,"Renilla control light, replicate 2":3146,"Call":"inactive"}
{"gene knocked down":"ATP8A (ATPase 8A)","amplicon":"DRSC05421","firefly reporter light, replicate 1":14822,"Renilla control light, replicate 1":12164,"Call":"inactive"}
{"gene knocked down":"ATP8A (ATPase 8A)","amplicon":"DRSC06643","firefly reporter light, replicate 1":13408,"Renilla control light, replicate 1":3553,"Call":"inactive"}
{"gene knocked down":"ATP8A (ATPase 8A)","amplicon":"DRSC06644","firefly reporter light, replicate 1":6050,"Renilla control light, replicate 1":2356,"Call":"inactive"}

Taken from above:
CG31156 [DRSC15755], Renilla control light, replicate 1 → 7408
Under “Call”, CG31156 [DRSC15753] shows inactive
Toll-6 [DRSC11304], firefly reporter light, replicate 1 = 6621
Value of aus (argus) [DRSC13471] under “Call”: inactive
